No constants are given. Whether binding was seen depends on the method and setting. Binding seen in cells or lysates may run through a third protein. These calls come from enrichment with a bait or labelling near it, and not all partners need be listed.

By UniProt entry, the sequences of proteins in these tests, tags left out. Where a name states a change or a piece, a line headed by the entry shows the natural chain unless it says otherwise.
UniProt Q9FMT4: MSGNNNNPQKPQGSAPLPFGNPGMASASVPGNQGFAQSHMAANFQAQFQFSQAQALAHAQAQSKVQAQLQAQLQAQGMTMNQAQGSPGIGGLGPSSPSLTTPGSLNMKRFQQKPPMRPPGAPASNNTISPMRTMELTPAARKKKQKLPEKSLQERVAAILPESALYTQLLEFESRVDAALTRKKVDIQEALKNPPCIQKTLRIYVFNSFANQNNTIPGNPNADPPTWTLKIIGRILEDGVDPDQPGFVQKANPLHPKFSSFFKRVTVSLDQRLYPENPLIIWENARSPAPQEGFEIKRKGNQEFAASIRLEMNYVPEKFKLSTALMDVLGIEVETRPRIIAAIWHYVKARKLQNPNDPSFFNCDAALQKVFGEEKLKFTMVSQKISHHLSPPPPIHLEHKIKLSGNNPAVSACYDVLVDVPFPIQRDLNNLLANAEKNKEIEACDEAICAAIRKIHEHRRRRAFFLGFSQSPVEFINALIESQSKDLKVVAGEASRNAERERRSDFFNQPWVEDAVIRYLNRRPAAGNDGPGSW
UniProt Q6EVK6: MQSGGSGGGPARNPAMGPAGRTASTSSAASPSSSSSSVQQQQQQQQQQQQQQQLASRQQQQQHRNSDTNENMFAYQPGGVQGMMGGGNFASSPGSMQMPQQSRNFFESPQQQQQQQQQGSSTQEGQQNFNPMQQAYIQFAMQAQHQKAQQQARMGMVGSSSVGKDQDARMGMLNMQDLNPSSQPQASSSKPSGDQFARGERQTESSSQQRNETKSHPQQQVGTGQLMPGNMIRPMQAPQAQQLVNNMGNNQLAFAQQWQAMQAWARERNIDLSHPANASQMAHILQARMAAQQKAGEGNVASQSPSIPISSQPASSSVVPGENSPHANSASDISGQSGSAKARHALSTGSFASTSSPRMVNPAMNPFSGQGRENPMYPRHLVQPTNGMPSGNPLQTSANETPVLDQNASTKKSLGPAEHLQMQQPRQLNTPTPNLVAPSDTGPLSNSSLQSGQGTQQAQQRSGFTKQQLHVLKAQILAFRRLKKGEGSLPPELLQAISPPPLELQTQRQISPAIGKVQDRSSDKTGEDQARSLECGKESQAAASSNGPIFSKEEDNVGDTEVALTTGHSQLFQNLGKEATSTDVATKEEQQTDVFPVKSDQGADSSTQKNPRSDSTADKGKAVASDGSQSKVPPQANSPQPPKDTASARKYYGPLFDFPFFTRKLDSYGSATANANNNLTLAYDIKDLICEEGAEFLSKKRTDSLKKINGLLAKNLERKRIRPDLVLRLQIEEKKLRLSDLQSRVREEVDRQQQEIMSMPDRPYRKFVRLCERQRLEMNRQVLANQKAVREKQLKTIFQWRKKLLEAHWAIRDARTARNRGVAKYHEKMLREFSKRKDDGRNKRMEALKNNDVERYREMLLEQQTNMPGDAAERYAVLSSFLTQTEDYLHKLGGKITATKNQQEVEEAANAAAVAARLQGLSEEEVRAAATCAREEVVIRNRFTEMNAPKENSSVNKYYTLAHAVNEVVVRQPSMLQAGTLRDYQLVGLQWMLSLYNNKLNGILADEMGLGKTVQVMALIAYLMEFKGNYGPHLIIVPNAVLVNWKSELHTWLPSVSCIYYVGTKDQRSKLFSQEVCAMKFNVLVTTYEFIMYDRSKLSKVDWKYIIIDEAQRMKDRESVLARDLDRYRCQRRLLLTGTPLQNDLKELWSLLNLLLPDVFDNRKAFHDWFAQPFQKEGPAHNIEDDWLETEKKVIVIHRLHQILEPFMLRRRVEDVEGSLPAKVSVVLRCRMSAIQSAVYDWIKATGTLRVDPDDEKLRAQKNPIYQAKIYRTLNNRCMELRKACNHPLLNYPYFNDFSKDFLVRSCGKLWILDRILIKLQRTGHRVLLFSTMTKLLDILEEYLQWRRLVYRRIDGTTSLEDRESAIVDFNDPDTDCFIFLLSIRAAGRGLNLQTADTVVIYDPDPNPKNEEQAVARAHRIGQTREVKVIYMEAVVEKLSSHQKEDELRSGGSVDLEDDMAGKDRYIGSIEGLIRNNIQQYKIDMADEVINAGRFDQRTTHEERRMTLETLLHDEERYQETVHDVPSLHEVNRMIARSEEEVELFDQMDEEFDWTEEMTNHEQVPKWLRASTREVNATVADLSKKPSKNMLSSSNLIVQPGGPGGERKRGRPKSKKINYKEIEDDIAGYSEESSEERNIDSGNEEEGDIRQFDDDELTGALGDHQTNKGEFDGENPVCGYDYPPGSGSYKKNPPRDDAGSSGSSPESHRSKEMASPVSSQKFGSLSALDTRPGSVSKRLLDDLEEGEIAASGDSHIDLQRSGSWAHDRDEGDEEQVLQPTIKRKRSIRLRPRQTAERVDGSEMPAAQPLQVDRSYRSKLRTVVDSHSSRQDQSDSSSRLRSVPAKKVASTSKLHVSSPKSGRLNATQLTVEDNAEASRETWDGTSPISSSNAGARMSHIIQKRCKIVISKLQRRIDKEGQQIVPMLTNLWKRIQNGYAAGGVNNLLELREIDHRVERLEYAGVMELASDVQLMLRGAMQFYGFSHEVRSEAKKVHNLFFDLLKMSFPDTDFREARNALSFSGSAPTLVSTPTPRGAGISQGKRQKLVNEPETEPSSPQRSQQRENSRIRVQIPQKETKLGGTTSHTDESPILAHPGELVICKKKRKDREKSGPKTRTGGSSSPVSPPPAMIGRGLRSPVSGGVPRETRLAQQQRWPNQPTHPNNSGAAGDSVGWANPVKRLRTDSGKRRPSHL
UniProt F4IHS2: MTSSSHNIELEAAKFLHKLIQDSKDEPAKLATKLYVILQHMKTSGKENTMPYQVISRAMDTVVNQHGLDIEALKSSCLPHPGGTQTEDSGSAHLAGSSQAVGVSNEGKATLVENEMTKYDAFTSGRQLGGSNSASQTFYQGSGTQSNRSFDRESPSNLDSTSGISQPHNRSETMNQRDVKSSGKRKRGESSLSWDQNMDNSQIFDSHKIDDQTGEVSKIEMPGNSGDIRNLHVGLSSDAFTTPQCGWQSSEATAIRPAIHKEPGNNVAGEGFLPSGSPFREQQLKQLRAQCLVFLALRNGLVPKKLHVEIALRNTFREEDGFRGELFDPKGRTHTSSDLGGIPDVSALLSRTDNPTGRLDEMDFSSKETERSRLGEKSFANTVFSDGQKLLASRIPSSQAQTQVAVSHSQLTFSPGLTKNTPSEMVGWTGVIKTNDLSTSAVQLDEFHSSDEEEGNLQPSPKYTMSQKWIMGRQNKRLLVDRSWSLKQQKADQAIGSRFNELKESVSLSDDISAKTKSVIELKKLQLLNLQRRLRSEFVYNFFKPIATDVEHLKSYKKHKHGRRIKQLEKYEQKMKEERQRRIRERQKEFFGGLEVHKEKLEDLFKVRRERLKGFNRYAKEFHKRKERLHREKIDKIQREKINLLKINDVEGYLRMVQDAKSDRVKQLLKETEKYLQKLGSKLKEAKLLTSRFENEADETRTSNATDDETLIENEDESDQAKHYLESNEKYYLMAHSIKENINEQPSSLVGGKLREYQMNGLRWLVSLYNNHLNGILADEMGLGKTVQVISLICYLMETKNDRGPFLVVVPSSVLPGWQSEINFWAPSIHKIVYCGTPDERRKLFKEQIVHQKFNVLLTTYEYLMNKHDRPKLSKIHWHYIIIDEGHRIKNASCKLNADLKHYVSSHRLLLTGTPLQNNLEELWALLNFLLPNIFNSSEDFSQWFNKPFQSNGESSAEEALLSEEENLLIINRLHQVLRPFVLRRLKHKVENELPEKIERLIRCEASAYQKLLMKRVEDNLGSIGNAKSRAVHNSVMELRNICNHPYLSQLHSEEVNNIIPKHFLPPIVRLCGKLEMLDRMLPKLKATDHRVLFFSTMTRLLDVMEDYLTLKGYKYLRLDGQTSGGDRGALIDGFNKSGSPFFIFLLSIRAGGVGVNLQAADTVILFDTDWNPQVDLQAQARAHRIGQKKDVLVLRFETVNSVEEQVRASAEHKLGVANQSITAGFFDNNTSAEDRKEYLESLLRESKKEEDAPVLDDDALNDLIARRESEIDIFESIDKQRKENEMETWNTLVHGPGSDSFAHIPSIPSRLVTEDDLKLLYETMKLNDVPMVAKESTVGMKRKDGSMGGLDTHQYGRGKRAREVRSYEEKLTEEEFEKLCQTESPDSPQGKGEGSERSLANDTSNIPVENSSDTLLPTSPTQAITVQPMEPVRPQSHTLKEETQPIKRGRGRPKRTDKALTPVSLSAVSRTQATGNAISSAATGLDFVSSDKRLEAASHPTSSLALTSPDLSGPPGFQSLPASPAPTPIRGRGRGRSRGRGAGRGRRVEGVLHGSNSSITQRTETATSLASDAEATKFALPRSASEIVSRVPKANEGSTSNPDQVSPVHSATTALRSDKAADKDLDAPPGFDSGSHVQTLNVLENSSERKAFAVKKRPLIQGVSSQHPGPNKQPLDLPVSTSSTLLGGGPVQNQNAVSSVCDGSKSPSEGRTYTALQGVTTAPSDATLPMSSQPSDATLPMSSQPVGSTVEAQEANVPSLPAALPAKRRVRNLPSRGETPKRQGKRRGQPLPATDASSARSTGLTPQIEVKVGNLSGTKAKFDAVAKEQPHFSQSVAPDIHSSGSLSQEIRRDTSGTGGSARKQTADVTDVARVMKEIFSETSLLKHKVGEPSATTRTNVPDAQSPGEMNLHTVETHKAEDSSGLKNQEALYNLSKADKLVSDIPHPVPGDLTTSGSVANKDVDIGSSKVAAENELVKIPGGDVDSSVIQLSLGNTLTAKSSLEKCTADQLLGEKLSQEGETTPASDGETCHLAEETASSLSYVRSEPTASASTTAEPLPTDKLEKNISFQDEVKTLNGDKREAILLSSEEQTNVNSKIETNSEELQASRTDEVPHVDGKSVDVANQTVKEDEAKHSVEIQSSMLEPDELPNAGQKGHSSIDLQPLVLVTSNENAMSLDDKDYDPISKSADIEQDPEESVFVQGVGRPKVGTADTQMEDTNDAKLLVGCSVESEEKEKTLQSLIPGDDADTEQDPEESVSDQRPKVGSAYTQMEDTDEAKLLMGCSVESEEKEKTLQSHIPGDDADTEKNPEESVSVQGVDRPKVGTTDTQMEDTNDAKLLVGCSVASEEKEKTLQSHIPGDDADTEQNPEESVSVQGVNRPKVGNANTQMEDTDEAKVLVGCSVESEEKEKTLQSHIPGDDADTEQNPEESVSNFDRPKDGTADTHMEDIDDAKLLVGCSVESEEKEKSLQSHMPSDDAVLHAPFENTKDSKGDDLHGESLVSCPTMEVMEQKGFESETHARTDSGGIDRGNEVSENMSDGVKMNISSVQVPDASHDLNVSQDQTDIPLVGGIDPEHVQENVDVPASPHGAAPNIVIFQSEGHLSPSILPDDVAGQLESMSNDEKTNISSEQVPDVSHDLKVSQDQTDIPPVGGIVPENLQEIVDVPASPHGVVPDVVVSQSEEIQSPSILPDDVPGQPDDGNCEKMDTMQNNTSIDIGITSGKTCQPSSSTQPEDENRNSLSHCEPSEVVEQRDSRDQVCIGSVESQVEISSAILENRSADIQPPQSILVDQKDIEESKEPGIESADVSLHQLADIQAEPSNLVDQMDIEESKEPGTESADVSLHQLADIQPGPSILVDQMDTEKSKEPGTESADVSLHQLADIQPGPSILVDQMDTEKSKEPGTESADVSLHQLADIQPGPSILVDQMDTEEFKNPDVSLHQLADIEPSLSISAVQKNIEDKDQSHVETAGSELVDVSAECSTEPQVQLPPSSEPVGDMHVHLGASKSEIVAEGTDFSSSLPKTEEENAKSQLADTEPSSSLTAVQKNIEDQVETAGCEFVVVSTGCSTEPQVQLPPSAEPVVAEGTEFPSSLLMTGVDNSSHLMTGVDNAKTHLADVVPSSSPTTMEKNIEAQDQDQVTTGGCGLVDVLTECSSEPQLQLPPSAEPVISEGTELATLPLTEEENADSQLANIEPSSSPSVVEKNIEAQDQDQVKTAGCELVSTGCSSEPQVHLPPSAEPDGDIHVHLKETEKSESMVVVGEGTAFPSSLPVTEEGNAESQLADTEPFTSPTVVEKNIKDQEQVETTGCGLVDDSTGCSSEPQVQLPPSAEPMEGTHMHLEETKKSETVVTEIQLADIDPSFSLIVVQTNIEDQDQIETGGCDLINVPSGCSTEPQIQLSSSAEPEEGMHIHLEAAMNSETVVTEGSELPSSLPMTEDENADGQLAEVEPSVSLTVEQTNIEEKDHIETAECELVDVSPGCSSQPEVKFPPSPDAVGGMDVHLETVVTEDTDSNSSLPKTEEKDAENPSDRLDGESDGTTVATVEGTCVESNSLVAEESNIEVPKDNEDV

Test in all cases: affinity purification with mass spectrometry; YFPHA-tagged bait captured on GFP-Trap magnetic beads from extracts of 20 g transgenic plants; IP buffer 50 mM Tris-HCl pH 7.6, 150 mM NaCl, 5 mM MgCl2, 10% glycerol, 0.25% TritonX-100, 1 mM DTT, with Viscolase; LC-MS/MS, label-free quantification
For test [1], the target named is SWP73A-YFPHA (Arabidopsis thaliana) (UniProt F4JBZ1).
Test [2] has as its target SWP73B-YFPHA (Arabidopsis thaliana) (UniProt Q9FMT4).
The target in test [3] is T1, BSH-YFPHA (Arabidopsis thaliana) (UniProt P93045).
T1 sequence: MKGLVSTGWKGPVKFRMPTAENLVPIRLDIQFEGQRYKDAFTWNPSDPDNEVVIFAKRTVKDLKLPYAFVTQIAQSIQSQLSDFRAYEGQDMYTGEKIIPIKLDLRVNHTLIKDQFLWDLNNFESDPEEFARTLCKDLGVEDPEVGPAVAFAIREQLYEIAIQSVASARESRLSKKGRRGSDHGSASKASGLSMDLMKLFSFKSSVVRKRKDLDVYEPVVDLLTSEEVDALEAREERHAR

The target in test [4] is T2, SWI3D-YFPHA (Arabidopsis thaliana) (UniProt Q8VY05).
T2 sequence: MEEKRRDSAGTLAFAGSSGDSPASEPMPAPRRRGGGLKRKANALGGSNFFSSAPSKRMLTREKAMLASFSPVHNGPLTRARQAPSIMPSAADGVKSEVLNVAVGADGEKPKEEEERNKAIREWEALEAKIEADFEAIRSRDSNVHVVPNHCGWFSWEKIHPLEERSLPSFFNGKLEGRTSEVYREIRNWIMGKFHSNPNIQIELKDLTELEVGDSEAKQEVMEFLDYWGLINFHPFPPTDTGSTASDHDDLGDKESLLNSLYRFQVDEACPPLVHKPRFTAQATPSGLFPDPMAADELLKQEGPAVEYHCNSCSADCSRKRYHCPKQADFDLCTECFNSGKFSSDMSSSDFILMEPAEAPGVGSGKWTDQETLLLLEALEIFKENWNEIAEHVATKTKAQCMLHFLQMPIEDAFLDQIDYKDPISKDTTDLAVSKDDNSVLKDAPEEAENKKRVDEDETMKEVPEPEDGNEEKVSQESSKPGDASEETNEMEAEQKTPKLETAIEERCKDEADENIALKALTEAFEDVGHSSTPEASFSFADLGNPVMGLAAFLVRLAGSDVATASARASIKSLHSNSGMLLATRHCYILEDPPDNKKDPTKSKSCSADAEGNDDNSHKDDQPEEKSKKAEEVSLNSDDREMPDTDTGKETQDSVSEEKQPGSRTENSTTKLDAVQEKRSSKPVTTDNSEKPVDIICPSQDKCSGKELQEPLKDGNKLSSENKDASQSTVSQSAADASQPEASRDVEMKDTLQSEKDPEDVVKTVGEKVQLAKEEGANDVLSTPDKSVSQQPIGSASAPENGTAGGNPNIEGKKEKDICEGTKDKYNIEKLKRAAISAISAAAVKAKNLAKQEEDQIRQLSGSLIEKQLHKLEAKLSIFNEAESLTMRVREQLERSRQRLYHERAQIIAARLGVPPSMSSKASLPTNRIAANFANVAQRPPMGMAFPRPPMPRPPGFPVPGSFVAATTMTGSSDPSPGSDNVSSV

Turning to BRM (from UniProt Q6EVK6 1-2193), the binding entry in test [1] and in test [2] was “binds” each time.
Turning to “SWP73B (endogenous) (from UniProt Q9FMT4)”, the binding result in test [3], in test [4] and in test [1] was “binds” each time.
In the case of SYD (from UniProt F4IHS2 1-3574), the binding result in test [4] and in test [2] was “binds” in each case.

The values above are taken from publication PMC12177292.
